Reference: doi:10.1101/2025.09.20.677505

Sequences of proteins named here, by UniProt entry; tags and fusion partners are left off.
UniProt O95817: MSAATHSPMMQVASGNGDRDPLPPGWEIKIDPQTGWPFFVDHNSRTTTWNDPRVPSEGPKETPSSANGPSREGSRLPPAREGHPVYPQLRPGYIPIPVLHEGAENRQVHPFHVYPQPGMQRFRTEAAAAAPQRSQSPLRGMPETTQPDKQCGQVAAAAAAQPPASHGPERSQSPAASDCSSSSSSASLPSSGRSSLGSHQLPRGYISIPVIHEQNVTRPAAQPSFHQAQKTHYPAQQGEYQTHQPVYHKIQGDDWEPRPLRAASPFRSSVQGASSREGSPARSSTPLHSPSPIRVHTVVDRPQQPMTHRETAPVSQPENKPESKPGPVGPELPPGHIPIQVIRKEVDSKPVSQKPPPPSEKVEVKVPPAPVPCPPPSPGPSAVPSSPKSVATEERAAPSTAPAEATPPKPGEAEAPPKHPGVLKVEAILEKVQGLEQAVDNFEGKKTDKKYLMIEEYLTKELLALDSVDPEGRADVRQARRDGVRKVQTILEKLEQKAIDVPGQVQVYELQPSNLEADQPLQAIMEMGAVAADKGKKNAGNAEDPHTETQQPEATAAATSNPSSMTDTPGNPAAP
UniProt Q16401: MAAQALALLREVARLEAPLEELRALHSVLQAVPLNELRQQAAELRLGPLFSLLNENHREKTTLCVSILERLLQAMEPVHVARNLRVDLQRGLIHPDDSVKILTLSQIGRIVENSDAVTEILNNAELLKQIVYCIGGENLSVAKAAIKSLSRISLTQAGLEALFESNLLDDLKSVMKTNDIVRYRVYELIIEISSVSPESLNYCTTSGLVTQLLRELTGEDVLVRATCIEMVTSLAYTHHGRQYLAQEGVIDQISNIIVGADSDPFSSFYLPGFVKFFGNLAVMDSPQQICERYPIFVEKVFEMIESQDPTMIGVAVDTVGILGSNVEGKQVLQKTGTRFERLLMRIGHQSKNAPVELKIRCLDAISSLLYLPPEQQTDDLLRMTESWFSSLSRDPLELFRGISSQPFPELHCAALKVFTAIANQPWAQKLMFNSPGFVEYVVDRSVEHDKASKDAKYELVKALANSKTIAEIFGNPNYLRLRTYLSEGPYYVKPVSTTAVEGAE

B1: HSPB8, endogenous in iPSC-derived astrocytes (protein, UniProt Q9UJY1 1-196)
chain: MADGQMPFSCHYPSRLRRDPFRDSPLSSRLLDDGFGMDPFPDDLTASWPDWALPRLSSAWPGTLRSGMVPRGPTATARFGVPAEGRTPPPFPGEPWKVCVNVHSFKPEELMVKTKDGYVEVSGKHEEKQQEGGIVSKNFTKKIQLPAEVDPVTVFASLSPEGLLIIEAPQVPPYSTFGESSFNNELPQDSQEVTCT
B2: PSMF1, proteasome regulator, endogenous in iPSC-derived astrocytes (protein, UniProt Q92530 1-271)
chain: MAGLEVLFASAAPAITCRQDALVCFLHWEVVTHGYFGLGVGDQPGPNDKKSELLPAGWNNNKDLYVLRYEYKDGSRKLLVKAITVESSMILNVLEYGSQQVADLTLNLDDYIDAEHLGDFHRTYKNSEELRSRIVSGIITPIHEQWEKANVSSPHREFPPATAREVDPLRIPPHHPHTSRQPPWCDPLGPFVVGGEDLDPFGPRRGGMIVDPLRSGFPRALIDPSSGLPNRLPPGAVPPGARFDPFGPIGTSPPGPNPDHLPPPGYDDMYL

The molecules below were run against Bcl-2-associated athanogene 3 (BAG3), endogenous in iPSC-derived astrocytes (human (endogenous in iPSC-derived astrocytes)) (UniProt O95817) (assay: affinity purification with mass spectrometry).
For “PSMD5, proteasome regulator, endogenous in iPSC-derived astrocytes (from UniProt Q16401 1-504)”, the binding was “binds”. B1 was tested, and the binding was “binds”. For B2, the binding was “binds”.

No constants are given. Whether binding was seen depends on the method and setting. Binding seen in cells or lysates may run through a third protein. Here binding means that the protein was enriched with, or labelled near, the bait; the list need not be complete.
